According to US20250180556A1:
These are yes or no findings as the source states them, for the method shown. Some entries that bind do so weakly or less than the wild type.

Legend:
[1] = target: glutathione S-transferase (GST)-HmtA chimeric construct, biotinylated in vivo (Methanobrevibacter smithii); experiment: ELISA (figure legend)
[2] = target: glutathione S-transferase (GST)-HmtA chimeric construct, biotinylated in vivo (Methanobrevibacter smithii); experiment: ELISA, biotinylated GST-HmtA immobilised on coated plates

binding [1]: binds
binding [2]: binds
B1: scFv of monoclonal antibody mAb4 (N-VH-linker-VL-C) (scFv)
scFv: EVQLVESGGGLVQPGGSLRLSCAASGFTFSSYSMNWVRQAPGKGLEWVSYISSSSSTIYYADSVKGRFTISRDNAKNSLYLQMNSLRAEDTAVYYCARDFPNTEAFDIWGQGTLVTVSSGGGGSGGGGSGGGGSTQSALTQPASVSGSPGQSITISCTGTSSDVGGYNYVSWYQQHPGKAPKLMIYEVSNRPSGVSNRFSGSKSGNTASLTISGLQAEDEADYYCSSYDVFGGGTKLTVLG
